Results published in PubChem BioAssay (NCATS).
Some of the results follow. These are further read-outs of the screen, such as a control signal, another cell line or another target. No call is given for them. Compounds called inactive in the main read-out are mostly missing here. The note in brackets gives the kind of curve behind each potency; many fits are weak.

Test: qHTS Assay for Modulators of Human Peripheral Myelin Protein 22 (PMP22) Expression/Activity (AID 1967)
Conditions: Cell-based PMP22 reporter, dual-color luciferase ratio; measured here: green reporter channel AC50; mouse Pmp22 promoter in mouse Schwann cells
Summary of the method: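 Readout is the corrected green/red luminescence ratio after 24 h compound exposure, normalised to untreated cells (0%). Engineered MSC80 mouse Schwann cells express green luciferase from the mouse Pmp22 promoter and red luciferase from EF-alpha as internal control.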

Structure (SMILES)	AC50
CN1CCN(C2Cc3ccccc3Sc3ccc(Cl)cc32)CC1 (centres undefined)	37.9 µM [falling, full curve]
O=C(c1ccc(OCCN2CCCCC2)cc1)c1c(-c2ccc(O)cc2)sc2cc(O)ccc12	33.8 µM [falling, full curve]
CN(C)CCCN1c2ccccc2Sc2ccccc21	75.7 µM [falling, partial curve]

Same assay, conditions: Cell-based PMP22 reporter, dual-color luciferase ratio; measured here: red reporter channel AC50; EF-alpha promoter control reporter in MSC80 mouse Schwann cells

Structure (SMILES)	AC50
CN1CCN(C2Cc3ccccc3Sc3ccc(Cl)cc32)CC1 (centres undefined)	33.8 µM [falling, full curve]
O=C(c1ccc(OCCN2CCCCC2)cc1)c1c(-c2ccc(O)cc2)sc2cc(O)ccc12	37.9 µM [falling, full curve]
CN(C)CCCN1c2ccccc2Sc2ccccc21	84.9 µM [falling, partial curve]

Test: qHTS Validation Assay to Find Inhibitors of Chronic Active B-Cell Receptor Signaling (AID 485345)
Conditions: ABC-DLBCL cells, chronic BCR signaling reporter; measured here: CBG/CBR ratio read-out
Summary of the method: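 Read-out: ratio of filter-corrected green (IkappaBalpha fusion) to red (native) luciferase signal in doxycycline-induced TMD8 cells after 4 h at 37C. Titration spanned 46 uM–3 nM; Data were normalised to basal cells and 10 uM MG-132 wells.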

Structure (SMILES)	AC50
CN1CCN(C2Cc3ccccc3Sc3ccc(Cl)cc32)CC1 (centres undefined)	20.6 µM [falling, single point]
O=C(c1ccc(OCCN2CCCCC2)cc1)c1c(-c2ccc(O)cc2)sc2cc(O)ccc12	20.6 µM [falling, partial curve]
CN(C)CCCN1c2ccccc2Sc2ccccc21	20.6 µM [falling, single point]
OCCN1CCN(CCCN2c3ccccc3Sc3ccc(C(F)(F)F)cc32)CC1	18.4 µM [falling, single point]

Same assay, conditions: ABC-DLBCL cells, chronic BCR signaling reporter; measured here: CBR control luciferase (viability counter)

Structure (SMILES)	AC50
Cc1cc2c(C(C)C)c(O)c(O)c(C=O)c2c(O)c1-c1c(C)cc2c(C(C)C)c(O)c(O)c(C=O)c2c1O	25.9 µM [falling, single point]
CN1CCN(C2Cc3ccccc3Sc3ccc(Cl)cc32)CC1 (centres undefined)	29.1 µM [falling, single point]
CN(C)CCCN1c2ccccc2Sc2ccccc21	25.9 µM [falling, partial curve]

Test: S16 Schwann cell PMP22 intronic element beta-lactamase assay (AID 624044)
Conditions: S16 rat Schwann cells, PMP22 element beta-lactamase FRET, 24 h; measured here: 460 nm blue channel
Summary of the method: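 Beta-lactamase reporter under a PMP22 intronic regulatory element in stable S16 rat Schwann cells; 24 h compound exposure. 460 nm blue signal normalized between DMSO (0%) and potassium clavulanate, with 535 nm FRET tracking viability; curves classed by r2 and response.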

Structure (SMILES)	AC50
CCN(CC)CCNc1ccc(CO)c2sc3ccccc3c(=O)c12	7.94 µM [falling, partial curve]
O=C(c1ccc(OCCN2CCCCC2)cc1)c1c(-c2ccc(O)cc2)sc2cc(O)ccc12	1.78 µM [falling, full curve, poor fit]
O[C@@H](c1cc(C(F)(F)F)nc2c(C(F)(F)F)cccc12)[C@H]1CCCCN1	25.1 µM [falling, single point]
Cc1nc(Nc2ncc(C(=O)Nc3c(C)cccc3Cl)s2)cc(N2CCN(CCO)CC2)n1	6.31 µM [falling, partial curve, poor fit]
CC(=O)Oc1ccccc1C(=O)Nc1ncc([N+](=O)[O-])s1	1.41 µM [falling, partial curve, poor fit]
C1CCC(C(CC2CCCCN2)C2CCCCC2)CC1 (centres undefined)	7.94 µM [falling, partial curve, poor fit]
